Most values lie at the floor of the assay. Slopes are relative: functional sequences can read slightly below zero.
Each substance was assayed on Saccharomyces cerevisiae PS128 hsf1 delta, HSF1(1-493) fusion (assay: growth estimate (transactivation domain function in HSF1 fusion, heat-shock survival) (a.u. (slope of normalised read count over time)); higher = stronger growth at 37°C, i.e. more transactivation activity). Conditions: library: random library.

Substance | growth estimate
RQPRLTSRSLGPPVQRRPRC | < -0.25
SGGVLSDLLSATFSVHTQLV | < -0.25
TDIPMCGNRGPT | < -0.25
DAEASKCCPYLEVLQSDVTN | < -0.25
GSGLSLGTAGKLANVALSSP | < -0.25
QPVGLVR | < -0.25
NAFRRWSR | < -0.25
GCRYNGTREH | < -0.25
QRGLSFASNSVHWKGWGVRR | < -0.25
LWPGI | < -0.25
YLIESPGLTRSGLV | < -0.25
LVGPVGLCNYIRLSTGLCQI | 0.139
PATYGRTQKRLV | < -0.25
CHVDCQLDSGSRNRKIS | < -0.25
HRTTHPKKLRRPARSRTSPT | < -0.25
RGAIGAALHCSKRTREGYAL | < -0.25
TYVASKDTVLGRNASSAGYH | < -0.25
GYRYFERRLQVHVSGQD | < -0.25
RFRRREALRTHQRIDVFSQN | < -0.25
EPNGFAYRCMRKHRL | < -0.25
EGRKRGVWLE | -0.21
LDEHRARSQGSSTVTG | < -0.25
WNDVLLE | -0.228
QAIPGVMDLGALVLSS | < -0.25
RIRNAKIGRFLYGVKMTKRH | < -0.25

Substance | growth estimate
RRPSGGTIRHSDAGHMGSYV | < -0.25
AAGSLERVFAGYEVCV | < -0.25
SSGSESGTTHRLY | -0.25
PGSYRFYFVGDSDLKLTRGE | < -0.25
QIYIATTHSLAGQSSEFVKG | < -0.25
ASRTNI | < -0.25
SHGGFRKETE | < -0.25
GGPTRFDLDVQWALARAPEL | -0.235
LLEIRCATRDRSVAGQLRAC | < -0.25
VLESSCWR | < -0.25
YSLSLPDDFSEPVHDRLLPE | < -0.25
LHYGCIVGEN | < -0.25
DSP | < -0.25
KVVFGVGVT | < -0.25
KSCGRLCRYRFICPTDTCVP | < -0.25
TWDLTFSCTDSQ | -0.237
GKTLHWIELVRGAE | < -0.25
VLPLVRDSSSAPHQPAPCTV | < -0.25
TVWVSLKCRRARLRAQPARS | < -0.25
IVPVLH | < -0.25
PVCYQEFFLMWRQLHRSSLT | -0.2
LASQCDS | < -0.25
TSVQVI | < -0.25
DSSSQAWRTVLTPYC | < -0.25
RFGSCWFRPLDVCFRYALGF | < -0.25

Substance | growth estimate
RKLVERWEFKRLQGSRHLTY | < -0.25
GRVINLVSTGRTVSSVGTIV | < -0.25
WHLCLSQRLDLTLL | < -0.25
STGDLAPQTQLAVVGPTLVS | < -0.25
GTGVKLAPECVARGIHCEDC | < -0.25
WVTT | < -0.25
EPRRPAVTGVGGCTGGASGV | < -0.25
CCLWFRFLGGSGG | < -0.25
YVHWASLYGD | 0.0839
DSYIKIGTKTRYKNVGKSL | < -0.25
AKLSGIEPTQG | < -0.25
VDGLSLRKTSTRCYDS | < -0.25
WGQNRRAIHIRHRADA | < -0.25
TQNYLPTWA | < -0.25
WRGVQGAADKYLRLKFVRMF | < -0.25
DNNFLWASDTVSWLEEPLAN | -0.125
RNKVISLAMKRPRQGEHLSF | < -0.25
WTGLVDSLPSCACI | < -0.25
WFS | < -0.25
GSIKTGKIGPRRAPWFTCHH | < -0.25
QEDNGGLRGGGAQVR | < -0.25
INVKRSCRISEYDTTFLVIT | < -0.25
VFPRRIRPAARDNTNWR | < -0.25
SSHC | < -0.25
GAGEGHDSAGCLVCFKTSCG | < -0.25

A second format for part of the listing above.
Substance	growth estimate
RQPRLTSRSLGPPVQRRPRC	< -0.25
QPVGLVR	< -0.25
GCRYNGTREH	< -0.25
QRGLSFASNSVHWKGWGVRR	< -0.25
LWPGI	< -0.25
PATYGRTQKRLV	< -0.25
CHVDCQLDSGSRNRKIS	< -0.25
HRTTHPKKLRRPARSRTSPT	< -0.25
SSGSESGTTHRLY	-0.25
PGSYRFYFVGDSDLKLTRGE	< -0.25
QIYIATTHSLAGQSSEFVKG	< -0.25
SHGGFRKETE	< -0.25
LHYGCIVGEN	< -0.25
TWDLTFSCTDSQ	-0.237
VLPLVRDSSSAPHQPAPCTV	< -0.25
TVWVSLKCRRARLRAQPARS	< -0.25
LASQCDS	< -0.25
DSSSQAWRTVLTPYC	< -0.25
RFGSCWFRPLDVCFRYALGF	< -0.25
GRVINLVSTGRTVSSVGTIV	< -0.25
CCLWFRFLGGSGG	< -0.25
AKLSGIEPTQG	< -0.25
VDGLSLRKTSTRCYDS	< -0.25
WGQNRRAIHIRHRADA	< -0.25
WFS	< -0.25

(listing goes on)

Substance | growth estimate
GYAWEEK | < -0.25
YELHGGTVSRSRDLGSGSRV | < -0.25
SGECGAMVALLNVGHW | < -0.25
RRWQRKKVSPGRMARSIGDD | < -0.25
LKEIDLFNMPPVSAGYFEWA | < -0.25
HNLPGKKLLRSPVADLPHVY | < -0.25
KARDSSLRTSREP | < -0.25
DGAY | < -0.25
WAEWGGIRGPHQPFSKNPTG | < -0.25
ASADPLP | < -0.25
RKAQRGRWKTSFRIASLALL | < -0.25
PRASHLWLVGRPPGLRPIGL | < -0.25
LEFYGMDRKVAGPISERIGA | < -0.25
RALSWGPEQRTHQYVLPRIG | < -0.25
HLRVMSVE | < -0.25
TASCLTINSVGEKAGYRGPV | < -0.25
PQWPGEQFRGEHG | < -0.25
TGLFGKFLAVTPQRF | < -0.25
LNLSRPRPALGSDGVITAWG | < -0.25
PKHMK | < -0.25
NRLCGHIRTGLGQSPLNRWQ | < -0.25
TAGSFYERLSRL | < -0.25
LLNLGKVTH | < -0.25
NKES | < -0.25
MRRAPWSAPHEASAQGNCYY | < -0.25
